Data taken from the supplement of paper PMC10849652.
This is one part of the list.

Amino acid sequences for entries named in this document (tags omitted). A change or cut given only in a name is not applied to a line headed by its entry.
UniProt Q9UJ41, whole entry, looked up: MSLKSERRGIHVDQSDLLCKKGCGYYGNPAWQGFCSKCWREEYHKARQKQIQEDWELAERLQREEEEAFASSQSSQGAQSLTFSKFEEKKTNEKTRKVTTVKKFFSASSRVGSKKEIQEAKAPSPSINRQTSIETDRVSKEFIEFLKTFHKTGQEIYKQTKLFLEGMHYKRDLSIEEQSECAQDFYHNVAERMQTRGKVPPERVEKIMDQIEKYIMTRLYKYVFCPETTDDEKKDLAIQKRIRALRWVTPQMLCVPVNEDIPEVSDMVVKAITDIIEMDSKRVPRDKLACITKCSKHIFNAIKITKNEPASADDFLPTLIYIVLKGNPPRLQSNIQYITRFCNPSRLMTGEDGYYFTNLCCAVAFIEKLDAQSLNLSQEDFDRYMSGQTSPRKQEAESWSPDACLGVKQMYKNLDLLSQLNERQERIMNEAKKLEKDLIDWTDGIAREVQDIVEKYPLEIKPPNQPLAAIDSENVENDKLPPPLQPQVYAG
UniProt O60518: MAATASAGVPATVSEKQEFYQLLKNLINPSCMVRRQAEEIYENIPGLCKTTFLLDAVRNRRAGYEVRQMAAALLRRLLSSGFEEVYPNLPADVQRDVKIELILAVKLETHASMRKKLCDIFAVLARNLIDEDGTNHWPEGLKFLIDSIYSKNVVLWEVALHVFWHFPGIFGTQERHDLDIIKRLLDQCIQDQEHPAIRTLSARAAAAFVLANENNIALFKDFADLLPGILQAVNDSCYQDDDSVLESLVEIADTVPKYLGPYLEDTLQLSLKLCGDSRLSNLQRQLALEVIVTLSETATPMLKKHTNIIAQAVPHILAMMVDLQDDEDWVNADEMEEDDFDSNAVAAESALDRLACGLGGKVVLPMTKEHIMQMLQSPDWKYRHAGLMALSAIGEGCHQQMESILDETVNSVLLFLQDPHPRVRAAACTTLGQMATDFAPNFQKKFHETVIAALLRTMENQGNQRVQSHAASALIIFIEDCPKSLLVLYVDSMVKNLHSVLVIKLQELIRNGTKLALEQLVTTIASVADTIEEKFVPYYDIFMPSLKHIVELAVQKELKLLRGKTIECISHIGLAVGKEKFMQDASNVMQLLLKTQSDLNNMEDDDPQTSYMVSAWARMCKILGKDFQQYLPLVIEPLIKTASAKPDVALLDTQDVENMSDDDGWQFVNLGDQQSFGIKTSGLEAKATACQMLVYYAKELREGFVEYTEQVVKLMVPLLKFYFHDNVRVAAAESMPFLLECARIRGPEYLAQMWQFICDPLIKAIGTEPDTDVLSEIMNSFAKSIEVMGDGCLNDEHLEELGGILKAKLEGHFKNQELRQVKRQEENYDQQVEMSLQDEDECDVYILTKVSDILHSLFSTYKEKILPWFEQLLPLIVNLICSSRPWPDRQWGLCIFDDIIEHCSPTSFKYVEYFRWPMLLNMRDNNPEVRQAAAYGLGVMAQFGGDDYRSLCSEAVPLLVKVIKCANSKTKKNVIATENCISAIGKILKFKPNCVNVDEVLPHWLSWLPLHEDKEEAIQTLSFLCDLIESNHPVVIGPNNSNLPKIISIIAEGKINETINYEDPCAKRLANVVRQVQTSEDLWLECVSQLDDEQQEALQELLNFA
UniProt P53611: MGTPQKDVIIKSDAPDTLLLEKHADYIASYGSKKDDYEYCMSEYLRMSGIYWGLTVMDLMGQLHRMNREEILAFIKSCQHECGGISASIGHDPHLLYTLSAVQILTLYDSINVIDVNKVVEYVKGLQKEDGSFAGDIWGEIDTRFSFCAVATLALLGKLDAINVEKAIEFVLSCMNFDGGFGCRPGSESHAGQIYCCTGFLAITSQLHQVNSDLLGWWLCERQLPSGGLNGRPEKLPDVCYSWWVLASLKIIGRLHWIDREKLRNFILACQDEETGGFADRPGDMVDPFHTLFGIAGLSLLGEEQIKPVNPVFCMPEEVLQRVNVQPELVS
UniProt P10114: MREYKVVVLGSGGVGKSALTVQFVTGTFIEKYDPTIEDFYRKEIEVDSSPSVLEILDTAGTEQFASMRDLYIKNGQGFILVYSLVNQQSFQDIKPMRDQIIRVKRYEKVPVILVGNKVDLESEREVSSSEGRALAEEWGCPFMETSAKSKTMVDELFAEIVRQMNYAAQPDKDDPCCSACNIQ
UniProt O75771: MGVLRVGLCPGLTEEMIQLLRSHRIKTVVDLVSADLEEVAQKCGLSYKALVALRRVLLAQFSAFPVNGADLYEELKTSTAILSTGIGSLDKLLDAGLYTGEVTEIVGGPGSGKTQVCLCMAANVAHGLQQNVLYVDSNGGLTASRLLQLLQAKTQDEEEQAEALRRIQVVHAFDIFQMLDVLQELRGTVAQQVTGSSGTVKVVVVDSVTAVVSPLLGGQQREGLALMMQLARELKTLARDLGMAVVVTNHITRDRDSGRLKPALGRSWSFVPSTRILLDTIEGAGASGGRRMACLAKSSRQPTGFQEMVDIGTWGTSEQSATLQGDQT
UniProt Q9H974: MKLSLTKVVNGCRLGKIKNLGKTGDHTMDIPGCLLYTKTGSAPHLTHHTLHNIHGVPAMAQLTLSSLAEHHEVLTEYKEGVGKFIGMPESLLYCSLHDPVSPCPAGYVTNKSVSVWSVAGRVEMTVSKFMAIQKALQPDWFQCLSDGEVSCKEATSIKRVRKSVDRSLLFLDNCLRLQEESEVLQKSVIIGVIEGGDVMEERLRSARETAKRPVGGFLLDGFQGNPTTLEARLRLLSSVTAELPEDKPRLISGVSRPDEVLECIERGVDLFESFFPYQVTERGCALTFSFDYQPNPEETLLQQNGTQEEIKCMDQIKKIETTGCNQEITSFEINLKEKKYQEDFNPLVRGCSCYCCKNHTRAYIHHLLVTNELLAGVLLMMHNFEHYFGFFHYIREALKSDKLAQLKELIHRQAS
UniProt P61224: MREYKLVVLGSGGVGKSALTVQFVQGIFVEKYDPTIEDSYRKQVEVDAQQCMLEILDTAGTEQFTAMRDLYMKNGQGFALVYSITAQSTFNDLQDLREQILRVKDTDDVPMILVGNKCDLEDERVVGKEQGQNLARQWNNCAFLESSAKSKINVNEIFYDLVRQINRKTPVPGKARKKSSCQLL
UniProt Q9NP72: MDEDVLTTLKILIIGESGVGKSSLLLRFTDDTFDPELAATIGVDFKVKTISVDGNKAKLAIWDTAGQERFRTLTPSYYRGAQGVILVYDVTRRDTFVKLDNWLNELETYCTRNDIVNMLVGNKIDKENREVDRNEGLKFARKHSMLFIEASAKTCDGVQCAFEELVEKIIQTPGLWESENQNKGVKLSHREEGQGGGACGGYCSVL
UniProt Q96S21: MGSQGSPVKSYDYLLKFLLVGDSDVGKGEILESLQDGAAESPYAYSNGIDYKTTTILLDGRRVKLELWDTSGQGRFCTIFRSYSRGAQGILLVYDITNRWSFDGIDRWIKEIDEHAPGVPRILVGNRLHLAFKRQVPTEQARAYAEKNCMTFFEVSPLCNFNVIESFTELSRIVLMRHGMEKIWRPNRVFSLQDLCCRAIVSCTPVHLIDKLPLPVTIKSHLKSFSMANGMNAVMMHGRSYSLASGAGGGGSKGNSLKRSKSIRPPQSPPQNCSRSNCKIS
UniProt Q9ULZ3, whole entry, looked up: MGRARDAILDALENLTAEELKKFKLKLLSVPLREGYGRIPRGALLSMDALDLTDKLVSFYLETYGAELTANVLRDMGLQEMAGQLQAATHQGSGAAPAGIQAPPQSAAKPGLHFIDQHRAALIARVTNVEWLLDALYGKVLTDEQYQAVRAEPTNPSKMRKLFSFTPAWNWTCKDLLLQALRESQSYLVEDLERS
UniProt Q9BTL3: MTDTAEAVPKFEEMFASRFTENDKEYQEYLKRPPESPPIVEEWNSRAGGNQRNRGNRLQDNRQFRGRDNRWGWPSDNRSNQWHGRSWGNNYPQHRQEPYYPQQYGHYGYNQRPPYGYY
UniProt P20338: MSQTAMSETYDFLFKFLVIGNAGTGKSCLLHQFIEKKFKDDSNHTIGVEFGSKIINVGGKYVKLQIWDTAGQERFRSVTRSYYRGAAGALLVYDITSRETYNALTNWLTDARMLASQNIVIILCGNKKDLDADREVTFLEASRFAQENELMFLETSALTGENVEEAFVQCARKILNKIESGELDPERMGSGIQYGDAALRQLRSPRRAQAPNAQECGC
UniProt P51151: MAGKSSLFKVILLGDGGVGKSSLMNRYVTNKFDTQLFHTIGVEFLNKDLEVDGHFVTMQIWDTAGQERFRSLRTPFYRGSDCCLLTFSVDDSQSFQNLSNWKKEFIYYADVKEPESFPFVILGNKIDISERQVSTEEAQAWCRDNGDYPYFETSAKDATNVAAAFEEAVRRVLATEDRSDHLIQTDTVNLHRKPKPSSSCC
UniProt Q9NR77: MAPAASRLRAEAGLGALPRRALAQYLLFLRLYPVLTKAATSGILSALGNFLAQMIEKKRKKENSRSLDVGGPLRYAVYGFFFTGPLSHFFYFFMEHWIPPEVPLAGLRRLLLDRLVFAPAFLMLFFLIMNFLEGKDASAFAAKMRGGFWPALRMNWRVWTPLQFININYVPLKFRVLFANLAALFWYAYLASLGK
UniProt P62491: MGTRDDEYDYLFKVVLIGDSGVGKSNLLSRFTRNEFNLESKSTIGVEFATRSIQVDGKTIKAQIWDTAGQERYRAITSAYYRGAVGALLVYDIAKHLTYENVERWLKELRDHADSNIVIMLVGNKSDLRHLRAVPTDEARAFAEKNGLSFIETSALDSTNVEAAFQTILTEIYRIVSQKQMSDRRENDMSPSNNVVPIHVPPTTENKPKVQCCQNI
UniProt Q9H0H5: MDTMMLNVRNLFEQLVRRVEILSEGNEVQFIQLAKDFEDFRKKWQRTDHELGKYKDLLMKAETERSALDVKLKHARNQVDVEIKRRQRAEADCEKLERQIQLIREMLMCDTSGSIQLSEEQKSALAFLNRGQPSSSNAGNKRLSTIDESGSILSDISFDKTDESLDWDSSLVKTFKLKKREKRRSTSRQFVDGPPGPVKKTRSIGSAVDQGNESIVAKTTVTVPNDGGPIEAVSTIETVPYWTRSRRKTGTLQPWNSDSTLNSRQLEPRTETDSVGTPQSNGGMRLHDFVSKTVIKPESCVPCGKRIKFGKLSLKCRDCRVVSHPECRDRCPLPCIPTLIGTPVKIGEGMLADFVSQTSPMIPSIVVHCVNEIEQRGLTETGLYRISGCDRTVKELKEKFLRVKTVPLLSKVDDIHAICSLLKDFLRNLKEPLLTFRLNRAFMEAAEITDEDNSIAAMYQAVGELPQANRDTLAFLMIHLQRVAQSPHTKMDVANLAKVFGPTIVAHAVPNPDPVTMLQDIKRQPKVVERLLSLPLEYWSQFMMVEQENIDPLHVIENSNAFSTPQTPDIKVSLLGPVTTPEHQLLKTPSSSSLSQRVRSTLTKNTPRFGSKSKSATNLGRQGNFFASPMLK
UniProt P20336: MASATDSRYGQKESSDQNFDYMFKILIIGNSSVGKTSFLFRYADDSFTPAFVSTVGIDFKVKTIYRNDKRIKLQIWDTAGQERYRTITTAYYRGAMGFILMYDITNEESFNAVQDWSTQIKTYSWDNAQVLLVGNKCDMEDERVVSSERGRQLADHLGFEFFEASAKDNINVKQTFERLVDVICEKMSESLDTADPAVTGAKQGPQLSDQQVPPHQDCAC
UniProt Q8WUD1: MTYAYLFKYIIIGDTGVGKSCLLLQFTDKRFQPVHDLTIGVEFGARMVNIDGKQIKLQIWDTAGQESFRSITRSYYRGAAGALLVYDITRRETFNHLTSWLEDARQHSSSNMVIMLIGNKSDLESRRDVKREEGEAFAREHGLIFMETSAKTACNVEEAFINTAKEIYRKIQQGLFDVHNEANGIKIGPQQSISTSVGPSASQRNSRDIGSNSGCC
UniProt P47224: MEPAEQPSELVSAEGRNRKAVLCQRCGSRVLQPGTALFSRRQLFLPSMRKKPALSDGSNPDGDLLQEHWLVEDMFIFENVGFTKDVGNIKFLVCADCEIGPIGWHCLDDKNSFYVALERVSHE
UniProt P52306: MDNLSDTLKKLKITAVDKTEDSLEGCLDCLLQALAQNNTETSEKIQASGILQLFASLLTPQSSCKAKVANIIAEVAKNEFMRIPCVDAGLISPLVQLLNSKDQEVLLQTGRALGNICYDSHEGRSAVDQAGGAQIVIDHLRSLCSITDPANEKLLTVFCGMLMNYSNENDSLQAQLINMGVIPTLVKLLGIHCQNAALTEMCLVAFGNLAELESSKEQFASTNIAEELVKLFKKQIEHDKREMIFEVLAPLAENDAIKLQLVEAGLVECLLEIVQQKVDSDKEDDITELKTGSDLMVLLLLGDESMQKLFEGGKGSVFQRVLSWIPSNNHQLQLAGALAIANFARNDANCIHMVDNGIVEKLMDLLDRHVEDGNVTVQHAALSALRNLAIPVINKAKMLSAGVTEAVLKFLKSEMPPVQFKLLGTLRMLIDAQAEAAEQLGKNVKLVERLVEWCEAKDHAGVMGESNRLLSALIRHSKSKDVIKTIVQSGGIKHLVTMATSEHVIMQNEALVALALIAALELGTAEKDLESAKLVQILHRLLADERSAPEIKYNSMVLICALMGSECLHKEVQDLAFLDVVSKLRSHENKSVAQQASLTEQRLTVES

Experiments:
Assay in all cases: log2 fold change, soluble protein after heating vs DMSO (PISA); higher = thermal stabilisation; K562 lysate, 10 uM; active = over 0.2 and 3.5 SD of the protein, either way, in both replicates (recomputed)
erlotinib = compound: C#Cc1cccc(Nc2ncnc3cc(OCCOC)c(OCCOC)cc23)c1 [erlotinib]
In short: (§1)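 Following dounce homogenisation of K562 pellets in PBS pH 7.4 with 1 mM MgCl2, crude extract at 1 mg/mL protein was incubated for 30 min with 10 μM compound. Aliquots were then heated for 3 min over 48°C-58°C and pooled, NP-40 was added to 0.5% at 4°C, and soluble protein was recovered as the supernatant at 21,000xg for 90 min. Channel-sum-equalised TMTpro 16plex LC-MS/MS quantified this protein. Each value, from duplicates, is a log-two fold change in thermal stability relative to solvent controls.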

[1] = compound: C/C(=N\NC(=O)C1=CC(=CC=C1)S(=O)(=O)N2CCOCC2)/C3=C(C=CC(=C3)Cl)O
In short: as §1

[2] = compound: C1=CC(=CC=C1C2=NC3=C(N2)C=C(C=C3)C(=O)N)OC4=CC=C(C=C4)Cl
In short: as §1

[3] = compound: C1=CC2=C(C=CC(=C2)/C=C\3/C(=O)NC(=NCC4=CC=CS4)S3)N=C1
In short: as §1

[4] = compound: C1=CC2=NC=CN=C2C=C1/C=C/3\C(=O)NC(=O)S3
In short: as §1

[5] = compound: C1=CC=C(C=C1)C2=NC(=C(N2)C3=CC=NC=C3)C4=CC(=C(C=C4)Cl)O
In short: as §1

[6] = compound: C1=CC=C2C(=C1)C3=NNC4=CC=CC(=C43)C2=O
In short: as §1

[7] = compound: C1CCN(C1)C(=O)NC2=CC=CC(=C2)NC3=NC=C(C(=N3)NCCC4=CN=CN4)Br
In short: as §1

[8] = compound: C1CN(CCC1(CC2=CC=C(C=C2)Cl)N)C3=NC=NC4=C3C=CN4
In short: as §1

IRAK-1-4 Inhibitor I = compound: C1COCCN1CCN2C3=CC=CC=C3N=C2NC(=O)C4=CC(=CC=C4)[N+](=O)[O-] [IRAK-1-4 Inhibitor I]
In short: as §1

Measured: log2 fold change

RAD18 (UniProt Q9NS91)
inactive: erlotinib -0.006 | [1] -0.063 | [2] -0.028 | [3] 0.033 | [4] -0.022 | [5] -0.023 | [6] 0.001 | [7] 0.014 | [8] -0.022 | IRAK-1-4 Inhibitor I -0.018

PYCR1 (UniProt J3QKT4)
inactive: erlotinib 0.281 | [1] -0.048 | [2] 0.05 | [3] 0.04 | [4] -0.094 | [5] 0.074 | [6] -0.558 | [7] -0.15 | [8] -0.029 | IRAK-1-4 Inhibitor I 0.016

RABGEF1 isoform 3 (UniProt Q9UJ41)
inactive: erlotinib -0.032 | [1] 0.047 | [2] -0.02 | [3] -0.031 | [4] -0.033 | [5] 0.012 | [6] -0.017 | [7] 0.041 | [8] -0.019 | IRAK-1-4 Inhibitor I 0.006

RAB23 (UniProt Q9ULC3)
inactive: erlotinib -0.032 | [1] 0.016 | [2] 0.057 | [3] -0.027 | [4] -0.046 | [5] -0.024 | [6] -0.026 | [7] -0.001 | [8] 0.009 | IRAK-1-4 Inhibitor I 0.025

QARS (UniProt P47897)
inactive: erlotinib 0.024 | [1] 0.054 | [2] -0.024 | [3] 0.027 | [4] 0.009 | [5] 0.011 | [6] -0.042 | [7] -0.006 | [8] 0.012 | IRAK-1-4 Inhibitor I -0.003

RAN (UniProt P62826)
inactive: erlotinib -0.026 | [1] 0.041 | [2] 0.014 | [3] -0.022 | [4] -0.003 | [5] 0.003 | [6] 0 | [7] 0.02 | [8] 0.001 | IRAK-1-4 Inhibitor I 0.006

RANBP6 (UniProt O60518)
inactive: erlotinib 0.045 | [1] -0.043 | [2] -0.003 | [3] -0.034 | [4] 0.061 | [5] 0.027 | [6] 0.021 | [7] 0.044 | [8] -0.019 | IRAK-1-4 Inhibitor I 0.04

2 neighbouring entries already listed, for reference:
QARS (UniProt P47897)
inactive: erlotinib 0.024 | [1] 0.054 | [2] -0.024 | [3] 0.027 | [4] 0.009 | [5] 0.011 | [6] -0.042 | [7] -0.006 | [8] 0.012 | IRAK-1-4 Inhibitor I -0.003

RAN (UniProt P62826)
inactive: erlotinib -0.026 | [1] 0.041 | [2] 0.014 | [3] -0.022 | [4] -0.003 | [5] 0.003 | [6] 0 | [7] 0.02 | [8] 0.001 | IRAK-1-4 Inhibitor I 0.006

Later entries:

RABGGTB (UniProt P53611)
inactive: erlotinib 0.01 | [1] 0.026 | [2] -0.015 | [3] 0.021 | [4] 0.04 | [5] -0.023 | [6] -0.093 | [7] -0.029 | [8] 0.003 | IRAK-1-4 Inhibitor I 0.03

RAB3IL1 (UniProt Q8TBN0)
inactive: erlotinib -0.026 | [1] 0.005 | [2] -0.021 | [3] 0.024 | [4] -0.05 | [5] 0.053 | [6] -0.038 | [7] -0.013 | [8] -0.003 | IRAK-1-4 Inhibitor I 0.011

RAB2A (UniProt P61019)
inactive: erlotinib -0.023 | [1] -0.045 | [2] -0.008 | [3] 0.013 | [4] 0.01 | [5] -0.03 | [6] 0.045 | [7] 0.033 | [8] -0.097 | IRAK-1-4 Inhibitor I 0.002

RAP2A (UniProt P10114)
inactive: erlotinib 0.059 | [1] 0.058 | [2] 0.031 | [3] 0.035 | [4] -0.068 | [5] 0.026 | [6] 0.022 | [7] -0.009 | [8] 0.061 | IRAK-1-4 Inhibitor I 0.01

RAD51D (UniProt O75771)
inactive: erlotinib -0.036 | [1] -0.144 | [2] -0.008 | [3] -0.041 | [4] 0.123 | [5] -0.025 | [6] -0.035 | [7] -0.033 | [8] 0.04 | IRAK-1-4 Inhibitor I -0.024

QTRT2 isoform 4 (UniProt Q9H974)
inactive: erlotinib -0.024 | [1] 0.082 | [2] -0.032 | [3] -0.019 | [4] -0.048 | [5] -0.009 | [6] -0.007 | [7] 0.007 | [8] 0.022 | IRAK-1-4 Inhibitor I 0.006

RAP1B (UniProt P61224)
inactive: erlotinib -0.017 | [1] -0.085 | [2] 0.024 | [3] 0.016 | [4] -0.031 | [5] 0.006 | [6] -0.014 | [7] -0.033 | [8] -0.004 | IRAK-1-4 Inhibitor I 0.014

RAB18 isoform 2 (UniProt Q9NP72)
inactive: erlotinib -0.037 | [1] 0.021 | [2] 0.008 | [3] -0.013 | [4] -0.058 | [5] 0.028 | [6] -0.088 | [7] -0.034 | [8] -0.032 | IRAK-1-4 Inhibitor I -0.021

RAB40C (UniProt Q96S21)
inactive: erlotinib -0.015 | [1] -0.04 | [2] 0.035 | [3] -0.011 | [4] -0.042 | [5] -0.025 | [6] -0.037 | [7] -0.018 | [8] -0.027 | IRAK-1-4 Inhibitor I 0.032

PYCARD (UniProt Q9ULZ3)
inactive: erlotinib 0.013 | [1] -0.013 | [2] 0.004 | [3] 0.004 | [4] -0.007 | [5] 0.016 | [6] -0.007 | [7] 0.014 | [8] 0.009 | IRAK-1-4 Inhibitor I 0.003

RAC1 isoform 2 (UniProt P63000)
inactive: erlotinib -0.029 | [1] -0.054 | [2] 0.025 | [3] 0.003 | [4] 0.023 | [5] 0.059 | [6] 0.013 | [7] 0.011 | [8] 0.001 | IRAK-1-4 Inhibitor I -0.028

RAMAC (UniProt Q9BTL3)
inactive: erlotinib -0.095 | [1] 0.018 | [2] 0.009 | [3] -0.044 | [4] -0.033 | [5] -0.009 | [6] 0.075 | [7] 0.035 | [8] -0.019 | IRAK-1-4 Inhibitor I 0.021

RAB4A (UniProt P20338)
inactive: erlotinib 0.041 | [1] 0.043 | [2] 0.004 | [3] 0.04 | [4] -0.016 | [5] 0.053 | [6] 0.008 | [7] -0.026 | [8] -0.013 | IRAK-1-4 Inhibitor I -0.03

RAB9A (UniProt P51151)
inactive: erlotinib 0.012 | [1] -0.07 | [2] -0.037 | [3] -0.003 | [4] -0.029 | [5] -0.013 | [6] 0.062 | [7] 0 | [8] 0.009 | IRAK-1-4 Inhibitor I 0.026

PXMP2 (UniProt Q9NR77)
inactive: erlotinib 0 | [1] 0.028 | [2] -0.012 | [3] -0.023 | [4] -0.004 | [5] -0.094 | [6] 0.035 | [7] -0.023 | [8] 0.002 | IRAK-1-4 Inhibitor I 0.021

RABGAP1L isoform 5 (UniProt Q5R372)
inactive: erlotinib 0.045 | [1] 0.004 | [2] -0.077 | [3] 0.008 | [4] -0.02 | [5] -0.002 | [6] -0.054 | [7] -0.061 | [8] 0.01 | IRAK-1-4 Inhibitor I 0.052

RABEP1 (UniProt Q15276)
inactive: erlotinib 0.005 | [1] 0.019 | [2] 0.014 | [3] -0.023 | [4] -0.006 | [5] -0.015 | [6] -0.023 | [7] -0.009 | [8] -0.005 | IRAK-1-4 Inhibitor I 0.004

RAB11A (UniProt P62491)
inactive: erlotinib 0.009 | [1] -0.078 | [2] 0.017 | [3] 0.01 | [4] -0.027 | [5] -0.018 | [6] 0.07 | [7] 0.047 | [8] 0.033 | IRAK-1-4 Inhibitor I 0.03

RACGAP1 (UniProt Q9H0H5)
inactive: erlotinib 0.032 | [1] 0.02 | [2] 0.025 | [3] -0.015 | [4] -0.022 | [5] 0.022 | [6] -0.023 | [7] -0.035 | [8] 0.025 | IRAK-1-4 Inhibitor I -0.005

RAB3A (UniProt P20336)
inactive: erlotinib -0.022 | [1] 0.074 | [2] 0.039 | [3] 0.024 | [4] -0.045 | [5] 0.026 | [6] -0.022 | [7] 0.037 | [8] 0.02 | IRAK-1-4 Inhibitor I 0

RAB2B (UniProt Q8WUD1)
inactive: erlotinib 0.015 | [1] -0.026 | [2] 0.014 | [3] 0.018 | [4] 0.029 | [5] 0.007 | [6] 0.006 | [7] -0.001 | [8] 0.027 | IRAK-1-4 Inhibitor I 0.015

RABIF (UniProt P47224)
inactive: erlotinib 0.007 | [1] -0.015 | [2] 0.058 | [3] -0.001 | [4] -0.032 | [5] -0.018 | [6] -0.045 | [7] 0.018 | [8] -0.034 | IRAK-1-4 Inhibitor I 0.001

RAP1GDS1 isoform 5 (UniProt P52306)
inactive: erlotinib 0.045 | [1] 0.014 | [2] 0.027 | [3] -0.009 | [4] -0.009 | [5] -0.012 | [6] -0.007 | [7] 0.022 | [8] -0.002 | IRAK-1-4 Inhibitor I 0.026
